Assays:
[1] = tested on: GPA33-expressing SW1222 xenografts; assay: Absorbed dose estimates for PRIT+[^177Lu]LuDOTA-Bn including dendron-CA CCA-16-DOTA-Y^3+; format: in vivo, nude mice
Procedure: Absorbed dose estimates for PRIT+[^177Lu]LuDOTA-Bn including dendron-CA CCA-16-DOTA-Y^3+: In order to calculate absorbed doses for PRIT+[[…]]LuDOTA-Bn including dendron-CA (the clearing agent of the present technology), groups of nude mice bearing GPA33-expressing SW1222 xenografts (n=5/group) were injected i.v. with the BsAb huA33-C825 (250 μg; 1.19 nmol) 28 h prior and i.v. with dendron-clearing agent CCA-16-DOTA-Y^3+ (25 μg; 2.76 nmol) 4 h prior to administration of [^177Lu]LuDOTA-Bn (20 pmol, 3.7 MBq [100 μCi]). These mice were sacrificed at 1, 4, 24, or 48 h p.i. of [^177Lu]LuDOTA-Bn for biodistribution assay. For each tissue, the non-decay-corrected time-activity concentration data were fitted using Excel to a 1-component, 2-component, or more complex exponential function as appropriate, and analytically integrated to yield the cumulated activity concentration per unit administered activity (MBq-h/g per MBq). The ^177Lu equilibrium dose constant for non-penetrating radiations (8.49 g-cGy/MBq-h) was used to estimate the tumor-to-tumor and select organ-to-organ self-absorbed doses, assuming complete local absorption of the ^177Lu beta rays only, and ignoring the gamma ray and non-self dose contributions.

[2] = tested on: SW1222 xenografts (anti-GPA33 PRIT); assay: Optimized PRIT+[^177Lu]LuDOTA-Bn including dextran-CA (Cheal et al. 2016): dosimetry and therapy; format: in vivo, mice; conditions: with dextran-CA; at 278 MBq
From the text: See Cheal et al., Eur J Nucl Med Mol Imaging 43: 925 (2016). […] Cheal et al., Eur J Nucl Med Mol Imaging 43: 925 (2016).
Based on human normal-tissue radiation dose tolerance estimates derived from clinical observations (Marks, et al., Int J Radiat Oncol Biol Phys. 76:S10-9 (2010)) the maximum tolerated doses (MTDs) are 250 cGy for bone marrow, 1,500 cGy for lung, 3,000 cGy for liver, and 2,000 cGy for kidney. […] At this activity, the estimated absorbed dose delivered to tumor would be 18,292 cGy (183 Gy), with 250 cGy to blood (marrow) and 1,473 cGy to kidney.

[3] = with dendron-CA CCA-16-DOTA-Y^3+ 25 μg
[4] = with dendron-CA, administered activity of 15.6 MBq

## ^177Lu-aminobenzylDOTA [[^177Lu]LuDOTA-Bn]
[1]; [3]
  estimated absorbed dose, blood: 11.7 cGy/MBq
  estimated absorbed dose, kidneys: 13.3 cGy/MBq
  estimated absorbed dose, liver: 9.97 cGy/MBq
  estimated absorbed dose, spleen: 5.49 cGy/MBq
  estimated absorbed dose, tumor: 468.4 cGy/MBq
[1]; [4]
  absorbed dose to blood (marrow): 183 cGy
  absorbed dose to kidney: 207 cGy
  tumor absorbed dose: ~73 Gy
[1]; with dendron-CA, at 21 MBq
  estimated absorbed dose delivered to tumor: 9836 cGy
  estimated absorbed dose to blood (marrow): 246 cGy
  estimated absorbed dose to kidney: 280 cGy
[2]
  estimated absorbed dose delivered to tumor: 18,292 cGy
  estimated absorbed dose to blood (marrow): 250 cGy
  estimated absorbed dose to kidney: 1,473 cGy
